Source: the supplement of paper PMC10735217
Where a name gives a salt, the structure may show the parent alone. Some of the results follow. Single values are uncertain here, since repeats match poorly.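 In a drug-repurposing library screen, luminescence reads luciferase driven by eight TEAD-binding elements, stably integrated into human kidney-derived cells. Compounds scoring over five robust Z scores above the plate mean are called hits.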

Tested on: HEK293A TEAD-LUC reporter
Test: TEAD-luciferase reporter activity (YAP activation), robust Z score vs plate; higher = stronger YAP/TEAD activation
Conditions: 24 h

| Compound | TEAD-luciferase reporter activity (compound concentration: 200 nM) | TEAD-luciferase reporter activity (compound concentration: 2 uM) | TEAD-luciferase reporter activity (compound concentration: 10 uM) |
| --- | --- | --- | --- |
| CN(CCCCCCN(C)C(=O)Oc1ccc[n+](C)c1)C(=O)Oc1ccc[n+](C)c1 | inactive: 1.28 | inactive: -1.63 | inactive: 1.07 |
| Cc1nc(-c2cn3c(n2)-c2ccc(-c4cnn(C(C)(C)C(N)=O)c4)cc2OCC3)n(C(C)C)n1 [Taselisib] | inactive: 1 | inactive: -1.87 | inactive: -0.238 |
| CC(C)C(=O)Oc1ccc(CO)cc1[C@H](CCN(C(C)C)C(C)C)c1ccccc1 [fesoterodine fumarate] | inactive: -0.818 | inactive: -1.22 | inactive: -0.255 |
| COc1ccc(S(=O)(=O)Nc2cc(Cl)cc(Cl)c2OC)cc1N1CCNCC1 | inactive: 3.78 | inactive: -1.29 | inactive: -0.368 |
| COc1ccc2c(c1)nc(S(=O)Cc1ncc(C)c(OC)c1C)n2S(=O)(=O)c1ccc(OCC(=O)O)cc1 (stereo unspecified) | inactive: -0.495 | inactive: -0.381 | inactive: -0.182 |
| CCOc1nc(N)c2ncn(C3CCCC3)c2n1 | inactive: 0.869 | inactive: -0.679 | inactive: 0.483 |
| CCc1cccc2c1S(=O)(=O)c1ccccc1O2 | inactive: -0.446 | inactive: -0.355 | inactive: 0.684 |
| CC[C@@]12C=C(C(=O)OC)n3c4c(c5ccccc53)CCN(CCC1)[C@H]42 [cis-Apovincamine] | inactive: -1.81 | inactive: 1.27 | active: 8.97 |
| O=C(O)c1ccccc1Nc1cc(Cl)ccc1C(=O)O [lobenzarit] | inactive: -1.48 | inactive: -0.55 | inactive: 0.546 |
| CC(=O)Nc1cccc2c(=O)n(C)c3ccccc3c(=O)c12 | inactive: 3.71 | inactive: -1.24 | inactive: -0.73 |
| CCC(Cc1c(I)cc(I)c(N)c1I)C(=O)O (stereo unspecified) | inactive: 2.05 | inactive: 1.57 | inactive: -1.41 |
| COc1ccc([C@@H]2Sc3cc(Cl)ccc3N(CCCN3CCN(c4ccccc4OC)CC3)C(=O)[C@@H]2OC(C)=O)cc1 | inactive: -1.61 | inactive: 0.908 | inactive: 0.37 |
| CCCCC(C)(C)[C@H](O)/C=C/[C@H]1C=CC(=O)[C@@H]1C/C=C\CCCC(=O)O | inactive: -0.0982 | inactive: 0.957 | inactive: 0.544 |
| CC(=O)NC[C@H]1CN(c2cc(F)c(-c3ccc(C(C)=O)cc3)c(F)c2)C(=O)O1 | inactive: 1.67 | inactive: -0.544 | inactive: 3.18 |
| Cn1c([N+](=O)[O-])cnc1C(O)c1cc(C(C)(C)C)ccc1O (stereo unspecified) | inactive: -1.55 | inactive: -1.6 | inactive: -0.597 |
| Cc1ccccc1/C=C/C(N)=O | inactive: 2.39 | inactive: 2.6 | inactive: -0.0545 |
| NS(=O)(=O)NC[C@H]1COc2cc(Cl)ccc2O1 | inactive: 0.14 | inactive: -0.825 | inactive: -0.152 |
| CONC(=O)Nc1ccc(-c2sc3c(c2CN(C)Cc2ccccc2)c(=O)n(-c2ccccc2)c(=O)n3Cc2c(F)cccc2F)cc1 [Sufugolix] | inactive: 0.423 | inactive: -1.39 | inactive: -1.22 |
| CC(C)(O/N=C(\C(=O)N[C@@H]1C(=O)N2C(C(=O)[O-])=C(C[N+]3(CCNC(=O)c4ccc(O)c(O)c4Cl)CCCC3)CS[C@H]12)c1csc(N)n1)C(=O)O [Cefiderocol] | inactive: -1.35 |  | inactive: -0.67 |
| CC(=O)Nc1cccc(O)c1 | inactive: -0.755 | inactive: 0.141 | inactive: -1.15 |
| Cc1ccc2c(Br)cc(Br)c(OC(=O)c3ccccc3)c2n1 | inactive: 0.965 | inactive: -0.143 | inactive: 1.38 |
| COc1cc(C(=O)NS(=O)(=O)c2ccccc2C)ccc1Cc1cn(C)c2ccc(NC(=O)OC3CCCC3)cc12 | inactive: -1.38 |  | inactive: -0.138 |
| COc1cc(C(=O)NS(=O)(=O)c2ccccc2C)ccc1Cc1cn(C)c2ccc(NC(=O)OC3CCCC3)cc12 [zafirlukast] |  | inactive: -1.5 |  |
| NCC(=O)Nc1ccc(-n2nc(C(F)(F)F)cc2-c2ccc3c(ccc4ccccc43)c2)cc1 | inactive: -0.785 | inactive: -0.868 | inactive: 1.27 |
| Cc1[nH]c2ccccc2c1CCNCc1ccc(/C=C/C(=O)NO)cc1 [Panobinostat] | active: 61.7 |  | active: 39.6 |
| Cc1[nH]c2ccccc2c1CCNCc1ccc(/C=C/C(=O)NO)cc1 [Panobinostat lactate] |  | active: 27 |  |
| CN1C(=O)CC(c2ccccc2)C1=O (stereo unspecified) [Phensuximide] | inactive: 0.584 | inactive: -1.87 | inactive: 4.85 |
| COc1ccc(CN2CCCCC23Cc2ccccc2CNC3=O)cc1OC (stereo unspecified) | inactive: -2.37 |  | inactive: -0.0658 |

Some of the entries above in another layout:
Compound | TEAD-luciferase reporter activity (compound concentration: 200 nM) | TEAD-luciferase reporter activity (compound concentration: 2 uM) | TEAD-luciferase reporter activity (compound concentration: 10 uM)
COc1ccc([C@@H]2Sc3cc(Cl)ccc3N(CCCN3CCN(c4ccccc4OC)CC3)C(=O)[C@@H]2OC(C)=O)cc1 | inactive: -1.61 | inactive: 0.908 | inactive: 0.37
CC(C)(O/N=C(\C(=O)N[C@@H]1C(=O)N2C(C(=O)[O-])=C(C[N+]3(CCNC(=O)c4ccc(O)c(O)c4Cl)CCCC3)CS[C@H]12)c1csc(N)n1)C(=O)O [Cefiderocol] | inactive: -1.35 |  | inactive: -0.67
COc1ccc(CN2CCCCC23Cc2ccccc2CNC3=O)cc1OC (stereo unspecified) | inactive: -2.37 |  | inactive: -0.0658

Following part:

| Compound | TEAD-luciferase reporter activity (compound concentration: 200 nM) | TEAD-luciferase reporter activity (compound concentration: 2 uM) | TEAD-luciferase reporter activity (compound concentration: 10 uM) |
| --- | --- | --- | --- |
| CCN(CC)CCOC(=O)C(Cc1cccc2ccccc12)CC1CCCO1 (stereo unspecified) [naftidrofuryl SR] |  | inactive: -1.18 |  |
| CCN(CC)CCOC(=O)C(Cc1cccc2ccccc12)CC1CCCO1 (stereo unspecified) [naftidrofuryl SR, Ethypharm] | inactive: 0.0504 |  | inactive: 3.92 |
| CCCCNc1cc(C(=O)O)cc(S(N)(=O)=O)c1Oc1ccccc1 [bumetanide] |  | inactive: 2.24 |  |
| CCCCNc1cc(C(=O)O)cc(S(N)(=O)=O)c1Oc1ccccc1 | inactive: -1.65 |  | inactive: 0.354 |
| O=C(c1cc(C(F)(F)F)cc(C(F)(F)F)c1)N1CCN(Cc2n[nH]nc2CN2CCOCC2)C[C@H]1Cc1c[nH]c2ccccc12 | inactive: 1.16 | inactive: 1.07 | inactive: 0.0577 |
| COc1cc2[nH]c(C)c(CCN3CCN(c4ccccc4)CC3)c2cc1OC [Oxypertine] | inactive: -0.456 | inactive: -0.487 | inactive: -1.22 |
| O=C(NC1CCN(CCCCC2(C(=O)NCC(F)(F)F)c3ccccc3-c3ccccc32)CC1)c1ccccc1-c1ccc(C(F)(F)F)cc1 [Lomitapide] | inactive: 0.446 | inactive: -0.957 | inactive: 1.08 |
| CCCCOC(=O)COc1ccc(C(=O)CNC(=O)c2cc3c(s2)CCNC3)cc1OCC(=O)OCCCC | inactive: -1.78 | inactive: -1.28 | inactive: 0.523 |
| CC(C)(C(=O)NC1C2CC3CC1CC(C(N)=O)(C3)C2)N1CCN(c2ccc(C(F)(F)F)cn2)CC1 (stereo unspecified) | inactive: -0.126 | inactive: -1.33 | inactive: 0.658 |
| CC(C)=CCC[C@](C)(O)[C@H]1CC[C@]2(C)[C@@H]1[C@H](O)C[C@@H]1[C@@]3(C)CC[C@H](O)C(C)(C)[C@@H]3CC[C@]12C [20(S)-Protopanaxadiol, one component of PBD-2131] | inactive: -0.547 | inactive: -0.0502 | inactive: 0.0761 |
| CCOc1c([C@H](C)n2nc(C)c3c(N)ncnc32)cc(Cl)c(F)c1[C@@H]1CNC(=O)C1 | inactive: -0.619 | inactive: -1.24 | inactive: 0.995 |
| CCC(CC)CNC(=O)Cn1cccc(NC(=O)[C@H](CC/C=C/C(=O)OC)NC(=O)c2cncn2C)c1=O | inactive: -0.721 | inactive: -0.461 | inactive: 0.493 |
| Cc1ccc(F)cc1C(=O)Nc1ccc(C(=O)N2Cc3cccn3Cc3ccccc32)c(Cl)c1 [lixivaptan] | inactive: -0.333 | inactive: 0.248 | inactive: 0.7 |
| Cc1ccc(Cl)c(OCC(O)CNC(C)(C)C)c1 (stereo unspecified) [Bupranolol] | inactive: 1.09 | inactive: 2.32 | inactive: 1.93 |
| CCCCOCCOC(=O)c1cccnc1 | inactive: -2.08 | inactive: -0.857 | inactive: -0.395 |
| CCCC(=O)O [Sodium n-butyrate] | inactive: -1.18 |  | inactive: -1.04 |
| CCCC(=O)O [Sodium butyrate] |  | inactive: -0.969 |  |
| CC[C@@]1(O)C(=O)OCc2c1cc1n(c2=O)Cc2c-1nc1ccccc1c2CC[Si](C)(C)C [Cositecan] | inactive: -1.82 |  | inactive: -1.62 |
| CCCCCCCCC/C(=C\C1=C(C)C(=O)C(OC)=C(OC)C1=O)C(=O)O | inactive: -1.42 | inactive: 0.774 | inactive: 0.675 |
| O=C(O)CCc1c[nH]c2ccccc12 [indole-3-propionic acid] |  | inactive: -1.15 |  |
| O=C(O)CCc1c[nH]c2ccccc12 [indole-3-propionic acid, Intellect Neurosciences] | inactive: 2.08 |  | inactive: -1.93 |
| O=C(Nc1ccc(Cl)cc1)Nc1ccc(Cl)c(C(F)(F)F)c1 | inactive: -1.51 | inactive: -1.19 | inactive: 0.229 |
| Cn1cnc([N+](=O)[O-])c1C[N+](C)(C)CC=CC(=O)Nc1cc2c(Nc3ccc(Cl)c(Br)c3)ncnc2cn1 [Tarloxotinib Bromide] | inactive: -1.08 | inactive: -1.19 | inactive: -1.34 |
| CCCCc1nc2cc(/C=C/C(=O)NO)ccc2n1CCN(CC)CC [Pracinostat (SB939)] | active: 35.8 |  | active: 35 |
| CCCCc1nc2cc(/C=C/C(=O)NO)ccc2n1CCN(CC)CC [pracinostat] |  | active: 23.8 |  |
| CNC(=O)[C@H](Cc1ccccc1)NC(=O)[C@@H](CC(C)C)S[C@@H]1CN(C(=O)NCCN2C(=O)c3ccccc3C2=O)C[C@@H]1S | inactive: -0.453 | inactive: -1.23 | inactive: -0.304 |
| O=C(CCCN1CC2CCC(CC2)C1)c1ccc(F)cc1 [nonaperone] | inactive: 3.53 | inactive: 3.96 | inactive: -0.0342 |
